Experimental data published in the supplement of paper PMC7877785.
± gives the uncertainty stated by the source. The uncertainty is large for many entries.

Test: self-splicing fitness, log relative to wild type (ln ratio); higher = more splicing; Tetrahymena group I intron in knt gene, E. coli kanamycin selection, DiMSum; sequences stand for … in CUCUCU…GGAGGGAAAAGUUAUCAGGCAUGCACCUGGUAGCUAGUCUUUAAACCAAUAGAUUGCAUCGGUUUAAAAGGCAAGACCGUCAAAUUGCGGGAAAGGGGUCAACAGCCGUUCAGUACCAAGUCUCAGGGGAAACUUUGAGAUGGCCUUGCAAAGGGUAUGGUAAUAAGCUGACGGACAUGGUCCUAACCACGCAGCCAAGUCCUAAGUCAACAGAUCUUCUGUUGAUAUGGAUGCAGUUCACAGACUAAAUGUCGGUCGGGGAAGAUGUAUUCUUCUCAUAAGAUAUAGUCGGACCUCUCCUUAAUGGGAGCUAGCGGAUGAAGUGAUGCAACACUGGAGCCGCUGGGAACUAAUUUGUAUGCGAAAGUAUAUUGAUUAGUUUUGGAGUACUCGUGGUCG
Procedure, shortened: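 Pooled colonies went to amplicon sequencing on an Illumina HiSeq 2500 after six replicate transformations. The plates were LB agar with 100 μg/mL carbenicillin, 50 μM IPTG and 0.2% rhamnose, with or without 25 μg/mL kanamycin, incubated overnight at 37°C or 30°C. The E. coli BL21(DE3) library had all eight P1ex-region intron nucleotides randomised, the intron placed in the knt kanamycin-resistance gene on pET-22b(+). DiMSum fitness is the error-weighted combination of replicate fold changes, kanamycin against none, normalised to wild type.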

Sequence	self-splicing fitness (ln) (30 °C)	self-splicing fitness (ln) (37 °C)
GGAGAGCAAUAUUACGAGAA	-2.67 ± 0.56	-2.4 ± 0.63
AUCGAGCAAUAUUACGUCAC	-2.85 ± 0.64	–
UGGCAGCAAUAUUACGAGGC	–	-2.78 ± 0.53
AGGUAGCAAUAUUACGCACU	-1.32 ± 0.017	-0.862 ± 0.035
UGAGAGCAAUAUUACGUUUA	–	-2.54 ± 1.1
CGUGAGCAAUAUUACGCCAG	-2.99 ± 0.52	-0.958 ± 0.56
UAAGAGCAAUAUUACGCCGC	–	-2.88 ± 1.1
AAGGAGCAAUAUUACGAAGC	-3.73 ± 0.74	-3.39 ± 0.75
CUUGAGCAAUAUUACGCGUC	-4.4 ± 1	-3.47 ± 1
UGGGAGCAAUAUUACGCCCA	–	-1.68 ± 0.53
UUCUAGCAAUAUUACGCGUU	-2.47 ± 0.15	-1.9 ± 0.13
UUUGAGCAAUAUUACGGAGA	-2.64 ± 0.65	–
AGUAAGCAAUAUUACGUCGC	-3.27 ± 1.1	–
CGAGAGCAAUAUUACGCCCG	–	-3.27 ± 1
CUUCAGCAAUAUUACGAAUC	-1.04 ± 0.2	-1.06 ± 0.19
GUGGAGCAAUAUUACGCAAG	-4.21 ± 1	–
UCGUAGCAAUAUUACGUAUC	-2.71 ± 1.1	-0.812 ± 0.52
UCAAAGCAAUAUUACGCGCU	-3.63 ± 0.47	-2.53 ± 0.45
AUGGAGCAAUAUUACGGUUA	-2.84 ± 0.54	–
AGAGAGCAAUAUUACGCUGG	-3.07 ± 0.27	-2.4 ± 0.32
CUCGAGCAAUAUUACGGGAC	-3.8 ± 0.24	-2.41 ± 0.27
CAUGAGCAAUAUUACGGGCU	-3.53 ± 0.16	-2.11 ± 0.15
UCGAAGCAAUAUUACGUGUU	-3.56 ± 0.2	-2.47 ± 0.19
UUGUAGCAAUAUUACGCACC	–	-1.16 ± 0.9
CUGGAGCAAUAUUACGUUGC	–	-1.88 ± 0.58
GGGCAGCAAUAUUACGGGGG	–	-2.9 ± 0.61

Sequence	self-splicing fitness (ln) (30 °C)	self-splicing fitness (ln) (37 °C)
CUAGAGCAAUAUUACGCGCC	–	-1.69 ± 1.2
UCAUAGCAAUAUUACGCGUC	–	-2.69 ± 0.62
ACCAAGCAAUAUUACGGCCC	-0.856 ± 0.11	0.112 ± 0.16
UCGGAGCAAUAUUACGACAG	-4.31 ± 0.52	-2.05 ± 0.51
AUGCAGCAAUAUUACGCAUC	-3.05 ± 0.57	–
AUCGAGCAAUAUUACGGAAG	-4.74 ± 0.72	–
AGAGAGCAAUAUUACGCAUU	-3.41 ± 0.18	-2.35 ± 0.15
GGAUAGCAAUAUUACGACAA	-0.923 ± 0.12	-0.865 ± 0.14
UGUUAGCAAUAUUACGAAGC	-2.15 ± 0.72	–
AAGGAGCAAUAUUACGACGG	-3.96 ± 1	–
UUAUAGCAAUAUUACGAAAC	-2.48 ± 0.69	-2.29 ± 1.1
UACGAGCAAUAUUACGCAGU	-3.15 ± 0.26	-2.95 ± 0.33
AUCGAGCAAUAUUACGAACA	-2.91 ± 0.24	-1.27 ± 0.2
GCAAAGCAAUAUUACGGUUC	-2.17 ± 0.089	-0.948 ± 0.11
GUCGAGCAAUAUUACGUGCU	-3.3 ± 0.62	-3.27 ± 0.73
UAAGAGCAAUAUUACGGAAA	-3.36 ± 0.61	-3.68 ± 0.59
CAAGAGCAAUAUUACGAGUA	-4.27 ± 1	–
CUUUAGCAAUAUUACGCAAU	-4.17 ± 1.1	-2.86 ± 0.55
UUAUAGCAAUAUUACGGCCC	-2.47 ± 0.78	–
UUGGAGCAAUAUUACGCAAC	–	-1.38 ± 0.61
GACGAGCAAUAUUACGGGGU	-4.2 ± 0.51	–
CCUAAGCAAUAUUACGAGUC	–	-2.97 ± 0.74
CUAAAGCAAUAUUACGCCAC	–	-0.735 ± 0.54
GUUAAGCAAUAUUACGGACC	-0.86 ± 1.4	-0.693 ± 1.4
GUUGAGCAAUAUUACGAAGA	-3.02 ± 0.62	–

An excerpt of these results, with bars between the fields:
Sequence | self-splicing fitness (ln) (30 °C) | self-splicing fitness (ln) (37 °C)
UCAAAGCAAUAUUACGCGCU | -3.63 ± 0.47 | -2.53 ± 0.45
AUGGAGCAAUAUUACGGUUA | -2.84 ± 0.54 | –
